Record: PubChem BioAssay AID504786 (Drosophila RNAi Screening Center, 2011)

Assay: 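Knock-downs reducing HIF reporter induction by the iron chelator DFO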 (primary screen)
System: Drosophila S2 cells with a stable HIF luciferase reporter
Reagent: long dsRNA against Drosophila genes, about 0.2 µg dsRNA per well of a 384-well plate
Timing: three days of knock-down, then 20 h of DFO before reading
Challenge: desferrioxamine (DFO) at 100 µM, an iron chelator that mimics hypoxia, for 20 h
Detection: 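Firefly luciferase driven by the mouse ldh-a hypoxia-response element, measured after 20 h of 100 µM DFO; z-scores per plate, higher means more signal lost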
Reading the numbers: z-score: higher = stronger loss of HIF reporter signal
The deposit covers about 21,000 reagents; below is a random part of those with a known target gene and a result. 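Primary screen; positive scores mean lost reporter signal, so the sign may be inverted from the usual convention.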 A plus sign joins genes that one reagent is predicted to hit.

| predicted target | DRSC id | z-score, replicate 1 | z-score, replicate 2 |
| --- | --- | --- | --- |
| CG10477 | DRSC09732 | -0.1 | -0.5 |
| CG14629 | DRSC18476 | 0 | -0.2 |
| Csp | DRSC11860 | -0.3 | -0.5 |
| rictor | DRSC20071 | -0.4 | -0.2 |
| DptA | DRSC07404 | -0.1 | 0.2 |
| CG13171 | DRSC06299 | -0.3 | -0.4 |
| CG12118 | DRSC17813 | -0.1 | -0.3 |
| CG5910 | DRSC11786 | -0.3 | -0.3 |
| CG5556 | DRSC00687 | 0 | -0.5 |
| bora | DRSC10744 | -0.4 | -0.5 |
| LysRS | DRSC17824 | -0.1 | 1.2 |
| CG34115 | DRSC03840 | 1.5 | -0.2 |
| CG4882 | DRSC04495 | 0.3 | 0.7 |
| CG31917 + Tfb5 | DRSC02362 | -0.4 | -0.4 |
| CG31917 + Tfb5 | DRSC02363 | -0.2 | -0.3 |
| Uch | DRSC00797 | -0.3 | -0.4 |
| cac | DRSC19743 | -0.2 | -0.5 |
| cac | DRSC20354 | -0.1 | -0.3 |
| CG9132 | DRSC20159 | -0.1 | -0.4 |

Only “z-score, replicate 2” (4 entries from above):
CG31917 + Tfb5 [DRSC02363]	-0.3
Uch [DRSC00797]	-0.4
cac [DRSC19743]	-0.5
cac [DRSC20354]	-0.3

The listing continues.
| predicted target | DRSC id | z-score, replicate 1 | z-score, replicate 2 |
| --- | --- | --- | --- |
| Ir68a | DRSC10599 | -0.2 | -0.4 |
| nclb | DRSC07009 | -0.2 | -0.2 |
| CG6462 | DRSC10641 | -0.2 | -0.6 |
| NSD | DRSC15691 | -0.2 | 0.1 |
| l(3)neo43 | DRSC14988 | 0 | -0.2 |
| Gr93c | DRSC14587 | 0.7 | -0.2 |
| Csk | DRSC12861 | 0.1 | -0.2 |
| Csk | DRSC15223 | -0.2 | -0.3 |
| CG3916 | DRSC15520 | -0.2 | 0.1 |
| CG1542 | DRSC15035 | 3.2 | 4.7 |
| CG32087 | DRSC10806 | -0.2 | -0.6 |
| Cpr12A | DRSC19722 | -0.3 | 0.2 |
| SiaT | DRSC04494 | 0 | -0.7 |
| CG17780 | DRSC15265 | -0.6 | -0.7 |
| CG6870 | DRSC02998 | -0.3 | -0.7 |
